We go through two substances from publication PMC8046979.

Results are given in words; binding and its absence hold for the method and conditions named. Binding seen in cells or lysates may run through a third protein. Some results given as binding are weak or reduced against the parent protein; the word gives no strength.

Test [1] deals with Flag-p62 (full-length SQSTM1/p62, wild type) (UniProt Q13501). The experiment in a line: co-IP; HEK293T cells co-transfected with Flag-p62 or Flag-p62 △LB and Myc-GCN5; precipitated with anti-Flag; western blot. On the technique in general: A western blot detects proteins with antibodies after separation by electrophoresis.
A further test addresses Myc-GCN5 (UniProt Q92830). Put plainly: co-IP; Flag-p62 and Myc-GCN5 with or without overexpression of HA-Sirt1; precipitated with anti-Myc; western blot.

Take “Myc-GCN5 (from UniProt Q92830 1-837) (enzyme)”: the binding result in test [1] was “binds”. Take “Flag-p62 (full-length SQSTM1/p62, wild type) (from UniProt Q13501 1-440)”: the binding entry in the test with Myc-GCN5 was “binds”.
